Experimental data published in US20230287083A1, “CD1 PEPTIDE-EPITOPE FOR USE IN THE TREATMENT OF A DISEASE CAUSED BY AN INT[…]” (priority 2020, published 2023).
Part of at least one peptide drawing is inferred or uncertain, most often the ends. Residues, ends and D or L forms follow the SMILES beside them.

Legend:
[1] = system: HSV; test: Cellular immune response towards live-attenuated HSV vaccine after peptide pre-immunization; assay type: in vivo, BALB/c mice; settings: one month after last injection; vs adjuvant-only control
Protocol: BALB/c mice are immunized in footpath with 100 μg of peptide of SEQ ID NO:5 emulsified in complete Freund's adjuvant, and this injection is repeated once after an interval of 2 weeks, the second injection being made in incomplete Freund's adjuvant. A control group of BALB/c mice is treated with adjuvant alone.
All mice then receive a commercial preparation of live-attenuated HSV on 2 occasions separated by one month.
One month after the last injection, the immune response towards the vaccine is compared between the 2 groups.

[2] = system: HSV; test: Anti-HSV antibodies, direct binding ELISA; assay type: in vivo, BALB/c mice; settings: vs control

For `CC(C)C[C@H](NC(=O)[C@H](Cc1c[nH]cn1)NC(=O)[C@H](CC(C)C)NC(=O)[C@H](Cc1ccccc1)NC(=O)[C@H](CC(C)C)NC(=O)[C@@H](N)C(C)C)C(=O)N[C@@H](Cc1ccc(O)cc1)C(=O)N[C@@H](CC(C)C)C(=O)N[C@@H](Cc1ccccc1)C(=O)N[C@@H](CC(C)C)C(=O)N[C@H](C(=O)O)[C@@H](C)O` [peptide of SEQ ID NO:5, VL-FLHLYLF-LT] (H-VLFLHLYLFLT-OH), the “type of immune response towards the HSV vaccine” value [1] was “shifts the response towards a Th1-like setting” and the “production of IgG2a and IgG2b specific antibodies” value [2] was “significantly increased production”.
